No constants are given. Whether binding was seen depends on the method and setting. For some of these results: Binding seen in cells or lysates may run through a third protein. Some entries that bind do so weakly or less than the wild type. Where a sequence is shown, tags or fusion partners need not be part of it.

In experiment [1] the target is BRASSINOSTEROID … 1 (BRI1), full length, split-ubiquitin fusion (Arabidopsis thaliana) (UniProt O22476). Kind of experiment: two-hybrid; mating-based split ubiquitin system (mbSUS) in yeast; Cub fusions in THY.AP4, Nub fusions in THY.AP5, both orientations; growth of diploids on -AHLT medium with 0, 75, 150 and 400 uM methionine; also beta-galactosidase assays.
The target of experiment [2] is BRI1-nYFP (Arabidopsis thaliana) (UniProt O22476). Nature of the experiment: split reporter; BiFC: BRI1-nYFP co-expressed with cYFP fusions in Nicotiana benthamiana leaf epidermal cells by Agrobacterium co-injection; YFP fluorescence by confocal microscopy after 72 h.

B1: SERK5 (Col-0 ecotype), full length, split-ubiquitin fusion (receptor, UniProt Q8LPS5 25-601)
chain: KTQVDALIALRSSLSSGDHTNNILQSWNATHVTPCSWFHVTCNTENSVTRLDLGSANLSGELVPQLAQLPNLQYLELFNNNITGEIPEELGDLMELVSLDLFANNISGPIPSSLGKLGKLRFLRLYNNSLSGEIPRSLTALPLDVLDISNNRLSGDIPVNGSFSQFTSMSFANNKLRPRPASPSPSPSGTSAAIVVGVAAGAALLFALAWWLRRKLQGHFLDVPAEEDPEVYLGQFKRFSLRELLVATEKFSKRNVLGKGRFGILYKGRLADDTLVAVKRLNEERTKGGELQFQTEVEMISMAVHRNLLRLRGFCMTPTERLLVYPYMANGSVASCLRERPEGNPALDWPKRKHIALGSARGLAYLHDHCDQKIIHLDVKAANILLDEEFEAVVGDFGLAKLMNYNDSHVTTAVRGTIGHIAPEYLSTGKSSEKTDVFGYGVMLLELITGQKAFDLARLANDDDIMLLDWVKEVLKEKKLESLVDAELEGKYVETEVEQLIQMALLCTQSSAMERPKMSEVVRMLEGDGLAERWEEWQKEEMPIHDFNYQAYPHAGTDWLIPYSNSLIENDYPSGPR
With B1, the binding entry in experiment [1] is given as “binds weakly”.

B2: SERK5-cYFP (receptor, UniProt Q8LPS5 25-601)
chain: KTQVDALIALRSSLSSGDHTNNILQSWNATHVTPCSWFHVTCNTENSVTRLDLGSANLSGELVPQLAQLPNLQYLELFNNNITGEIPEELGDLMELVSLDLFANNISGPIPSSLGKLGKLRFLRLYNNSLSGEIPRSLTALPLDVLDISNNRLSGDIPVNGSFSQFTSMSFANNKLRPRPASPSPSPSGTSAAIVVGVAAGAALLFALAWWLRRKLQGHFLDVPAEEDPEVYLGQFKRFSLRELLVATEKFSKRNVLGKGRFGILYKGRLADDTLVAVKRLNEERTKGGELQFQTEVEMISMAVHRNLLRLRGFCMTPTERLLVYPYMANGSVASCLRERPEGNPALDWPKRKHIALGSARGLAYLHDHCDQKIIHLDVKAANILLDEEFEAVVGDFGLAKLMNYNDSHVTTAVRGTIGHIAPEYLSTGKSSEKTDVFGYGVMLLELITGQKAFDLARLANDDDIMLLDWVKEVLKEKKLESLVDAELEGKYVETEVEQLIQMALLCTQSSAMERPKMSEVVRMLEGDGLAERWEEWQKEEMPIHDFNYQAYPHAGTDWLIPYSNSLIENDYPSGPR
Regarding B2, the binding result in experiment [2] is listed as “binds weakly”.

B3: BKK1 (BAK1-Like 1, SERK4), full length, split-ubiquitin fusion (receptor, UniProt Q9SKG5 34-620)
chain: DALTQLKNSLSSGDPANNVLQSWDATLVTPCTWFHVTCNPENKVTRVDLGNAKLSGKLVPELGQLLNLQYLELYSNNITGEIPEELGDLVELVSLDLYANSISGPIPSSLGKLGKLRFLRLNNNSLSGEIPMTLTSVQLQVLDISNNRLSGDIPVNGSFSLFTPISFANNSLTDLPEPPPTSTSPTPPPPSGGQMTAAIAGGVAAGAALLFAVPAIAFAWWLRRKPQDHFFDVPAEEDPEVHLGQLKRFTLRELLVATDNFSNKNVLGRGGFGKVYKGRLADGNLVAVKRLKEERTKGGELQFQTEVEMISMAVHRNLLRLRGFCMTPTERLLVYPYMANGSVASCLRERPEGNPALDWPKRKHIALGSARGLAYLHDHCDQKIIHRDVKAANILLDEEFEAVVGDFGLAKLMNYNDSHVTTAVRGTIGHIAPEYLSTGKSSEKTDVFGYGVMLLELITGQKAFDLARLANDDDIMLLDWVKEVLKEKKLESLVDAELEGKYVETEVEQLIQMALLCTQSSAMERPKMSEVVRMLEGDGLAERWEEWQKEEMPIHDFNYQAYPHAGTDWLIPYSNSLIENDYPSGPR
For B3, in experiment [1], the binding entry is recorded as “binds”.

B4: BKK1-cYFP (receptor, UniProt Q9SKG5 34-620)
chain: DALTQLKNSLSSGDPANNVLQSWDATLVTPCTWFHVTCNPENKVTRVDLGNAKLSGKLVPELGQLLNLQYLELYSNNITGEIPEELGDLVELVSLDLYANSISGPIPSSLGKLGKLRFLRLNNNSLSGEIPMTLTSVQLQVLDISNNRLSGDIPVNGSFSLFTPISFANNSLTDLPEPPPTSTSPTPPPPSGGQMTAAIAGGVAAGAALLFAVPAIAFAWWLRRKPQDHFFDVPAEEDPEVHLGQLKRFTLRELLVATDNFSNKNVLGRGGFGKVYKGRLADGNLVAVKRLKEERTKGGELQFQTEVEMISMAVHRNLLRLRGFCMTPTERLLVYPYMANGSVASCLRERPEGNPALDWPKRKHIALGSARGLAYLHDHCDQKIIHRDVKAANILLDEEFEAVVGDFGLAKLMNYNDSHVTTAVRGTIGHIAPEYLSTGKSSEKTDVFGYGVMLLELITGQKAFDLARLANDDDIMLLDWVKEVLKEKKLESLVDAELEGKYVETEVEQLIQMALLCTQSSAMERPKMSEVVRMLEGDGLAERWEEWQKEEMPIHDFNYQAYPHAGTDWLIPYSNSLIENDYPSGPR
For the molecule B4, in experiment [2], the binding entry is reported as “binds”.

Source of the values: publication PMC4606071.
